Test results taken from patent US20030166873A1.
No constants are given. Whether binding was seen depends on the method and setting. Some results given as binding are weak or reduced against the parent protein; the word gives no strength.

Sequences of proteins named here, by UniProt entry; tags and fusion partners are left off. Residues count along the entry.
UniProt P17948, residues 27-758: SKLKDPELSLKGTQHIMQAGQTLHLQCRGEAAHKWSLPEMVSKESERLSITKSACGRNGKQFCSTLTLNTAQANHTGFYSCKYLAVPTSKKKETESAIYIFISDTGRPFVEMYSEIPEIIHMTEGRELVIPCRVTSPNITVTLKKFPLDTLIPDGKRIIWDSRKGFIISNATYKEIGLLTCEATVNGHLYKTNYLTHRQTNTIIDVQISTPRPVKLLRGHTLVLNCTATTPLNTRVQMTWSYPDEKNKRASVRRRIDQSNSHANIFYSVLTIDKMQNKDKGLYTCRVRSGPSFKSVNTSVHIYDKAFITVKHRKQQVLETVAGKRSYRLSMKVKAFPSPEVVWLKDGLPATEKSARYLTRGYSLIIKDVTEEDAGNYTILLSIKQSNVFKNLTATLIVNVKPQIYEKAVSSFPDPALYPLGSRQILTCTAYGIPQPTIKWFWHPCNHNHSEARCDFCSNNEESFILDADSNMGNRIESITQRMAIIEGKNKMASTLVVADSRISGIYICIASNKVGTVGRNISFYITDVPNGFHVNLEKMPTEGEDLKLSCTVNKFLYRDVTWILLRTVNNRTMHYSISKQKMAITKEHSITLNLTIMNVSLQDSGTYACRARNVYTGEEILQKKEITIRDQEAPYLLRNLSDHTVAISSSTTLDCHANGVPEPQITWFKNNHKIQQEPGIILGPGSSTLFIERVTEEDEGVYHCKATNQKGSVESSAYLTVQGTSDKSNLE

Target: T1, PlGF152 (expression plasmid of Park et al.) (UniProt P49763)
T1 sequence (35S-labeled amino acids, looked up): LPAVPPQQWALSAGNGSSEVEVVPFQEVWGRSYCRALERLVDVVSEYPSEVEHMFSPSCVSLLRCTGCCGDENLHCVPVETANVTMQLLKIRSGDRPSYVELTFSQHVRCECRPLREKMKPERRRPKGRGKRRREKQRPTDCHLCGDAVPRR
Assay: receptor IgG / protein A precipitation of 35S-labeled COS7 conditioned medium

For “Flt1/IgG (from UniProt P17948 27-758) (Fc fusion)”, the binding was “binds”.
